# Assay results: PubChem BioAssay AID540276 (National Center for Advancing Translational Sciences (NCATS), 2011)
# Hit rate of the full screen: of about 300,000 compounds, about 5,400 (1.8%) were called active. Inconclusive results, whose numbers are uncertain, are shown with a selection of clear calls. Calls follow the shape of the full dose curve; tested in HEK293 cells. Where the call is inconclusive, the potency comes from a doubtful curve fit.
# Assay: qHTS for inhibitors of binding or entry into cells for Marburg Virus
# Conditions: Marburg virus pseudotyped entry inhibition, cell reporter; activity change, negative = inhibition: at 37.8 µM (top of the series) unless noted
# % is scaled to controls: 0 for no effect and ±100 for the full control effect; potency is read from the fitted curve at half-maximal effect.
Structure (SMILES),Potency,"activity change, negative = inhibition"
COc1cccc(CN2c3ccccc3-c3nc(SCC(=O)Nc4cccc(C)c4)ncc3S2(=O)=O)c1,"inconclusive: 14.1 µM [inhibitor, partial curve, poor fit]",
COc1ccc(-c2cc(C(F)(F)F)nc(NCc3ccccc3)n2)cc1OC,"inconclusive: 14.1 µM [inhibitor, partial curve, poor fit]",
O=C1c2ccccc2S(=O)(=O)N1CCOc1ccccc1,"inconclusive: 16.4 µM [activator, single point]",
COc1ccc2c(c1)c(CC(=O)NCc1cc([N+](=O)[O-])ccc1O)c(C)n2C(=O)c1ccc(Cl)cc1,,inactive: -10.1%
CCOc1ccc(NCc2cccn2-c2nnc(N3CCC(C(=O)NC(C)c4ccccc4)CC3)s2)cc1 (configuration not stated),"inconclusive: 35.5 µM [inhibitor, single point]",
Cc1cc(Nc2cccc(F)c2)nc(NCc2ccccc2)n1,"inconclusive: 12.6 µM [inhibitor, partial curve, poor fit]",
COc1ccc(CCNc2nc(=O)[nH]nc2C)cc1OC,"inconclusive: 5.17 µM [activator, partial curve, poor fit]",
C/C(=C\C(=S)Nc1ccccc1)Nc1cccc2ccccc12,"inconclusive: 23.1 µM [inhibitor, single point]",
COc1cccc([C@@H]2Oc3ccc(Br)cc3C(=O)[C@H]2O)c1,"inconclusive: 5.31 µM [activator, single point]",
COc1ccc(CC(=O)N/N=C/c2ccc(-c3ccc(F)cc3)o2)cc1OC,"inconclusive: 35.5 µM [inhibitor, single point]",
COc1ccccc1-c1nnc(SC/C(O)=C(\C#N)c2nc3ccccc3[nH]2)n1C1CCCCC1,"inconclusive: 1 µM [inhibitor, full curve, poor fit]",
COc1ccc(-c2csc(C3=C(O)CN(C(C)C)C3=N)n2)cc1OC,,inactive: -16.7% [at 46.1 µM]
CC(C)CC(=O)Nc1nc2ccc(S(=O)(=O)N3CCOCC3)cc2s1,"inconclusive: 10 µM [inhibitor, partial curve, poor fit]",
COc1ccc(-c2[nH]ncc2CN(C)CCCN2CCOCC2)cc1F,,inactive: -0.118% [at 46.1 µM]
O=C(CN1CCN(S(=O)(=O)N2CCOCC2)CC1)Nc1cc(Cl)ccc1Cl,"inconclusive: 28.2 µM [inhibitor, single point]",
CC1(C)Oc2ccc3ccc(=O)oc3c2/C(=C/Nc2ccc(O)cc2)C1=O,"inconclusive: 6.31 µM [inhibitor, partial curve, poor fit]",
CN(C1CCCCC1)S(=O)(=O)c1ccc(NC(=S)NC(=O)c2cccs2)cc1,active: 18.3 µM,
COc1ccc(OCc2cc(C(=O)N(C)C3CCOC3)no2)c(Cl)c1 (configuration not stated),"inconclusive: 2.82 µM [activator, single point]",
O=C(NNC1=Nc2ccccc2SC1)c1ccc(Cl)cc1,"inconclusive: 3.16 µM [inhibitor, full curve, poor fit]",
O=C(CNc1cc(S(=O)(=O)N2CCOCC2)ccc1NCC1CCCO1)Nc1ccccc1F (configuration not stated),"inconclusive: 0.708 µM [activator, full curve, poor fit]",
COC(=O)COc1ccc(/C=N/NC(=O)CN(c2ccccc2OC)S(=O)(=O)c2ccccc2)cc1,,inactive: -15.4% [at 46.1 µM]

Structure (SMILES),Potency,"activity change, negative = inhibition"
COc1ccc(C(C)=O)cc1COc1cccc2c1OC(C)(C)C2,,inactive: -27%
CN1CCN(CCCNC(=O)c2ccc3c(=O)n(CCc4ccccc4)c(=O)[nH]c3c2)CC1,"inconclusive: 35.5 µM [inhibitor, single point]",
Cc1cccc(/C=N/NC(=O)Cc2cccs2)c1,,inactive: 16.3% [at 46.1 µM]
COc1ccc(C(=O)NNC(=O)c2ccc3ccccc3n2)cc1,"inconclusive: 25.1 µM [inhibitor, single point]",
COc1ccccc1NC(=O)c1ccc(-c2ccc(Br)cc2)o1,,inactive: -16.5%
COc1ccc(N2CCN(C3CCCN(S(=O)(=O)c4ccccc4)C3)CC2)cc1 (configuration not stated),,inactive: 0.274%
COc1ccccc1N1CCN(C(c2ccccc2)c2nnnn2CCc2ccccc2)CC1 (configuration not stated),"inconclusive: 35.5 µM [inhibitor, single point]",
CC(=O)Nc1ccc2[nH]c(C)c(CC=C(Cl)Cl)c(=O)c2c1,,inactive: 3.48%
Cc1nnc(SCC(=O)N2c3ccccc3CC2C)[nH]c1=O (configuration not stated),,inactive: 0.515%
COc1ccc(/C=C/C(=O)NC(=S)NCC2CCCO2)cc1 (configuration not stated),,inactive: -0.645% [at 46.1 µM]
CC(C)(C(=O)c1ccccc1)/[N+]([O-])=C/c1ccccc1F,"inconclusive: 1.16 µM [inhibitor, partial curve, poor fit]",
CCOC(=O)C1=CN(CC2CCCO2)C=C(C(=O)OCC)C1c1ccccc1C(F)(F)F (configuration not stated),"inconclusive: 3.16 µM [inhibitor, single point]",
CCOC(=O)C1(CC2CCCCO2)CCN(Cc2ccc(OC)cc2F)CC1 (configuration not stated),"inconclusive: 10 µM [inhibitor, partial curve, poor fit]",
CCc1c(C)nc2cc(-c3cc(OC)cc(OC)c3)nn2c1N1CCN(CCN2CCOCC2)CC1,"inconclusive: 1.26 µM [inhibitor, single point]",
CCc1cc(C(=O)N(CC(C)C)c2c(N)n(Cc3ccccc3)c(=O)[nH]c2=O)sc1C,"inconclusive: 4.47 µM [inhibitor, partial curve]",
COc1cc(/C=N/Nc2cc(C)nc(NS(=O)(=O)c3ccc(C)cc3)n2)ccc1O,"inconclusive: 2.51 µM [inhibitor, full curve]",
COCCNC(=O)/C(C#N)=C/c1nc(N(C)C)n(-c2ccc(F)cc2)c1Cl,"inconclusive: 10 µM [inhibitor, partial curve, poor fit]",
CCOc1ccc(NC(=O)NC(CC)Cn2nnc3ccccc3c2=O)cc1 (configuration not stated),"inconclusive: 35.5 µM [inhibitor, single point]",
O=C(Nc1c2c(nn1-c1ccccc1)CS(=O)C2)c1ccc(Br)o1 (configuration not stated),,inactive: -12.5%
CCc1ccc(N2CC(C(=O)Nc3cc(C)on3)CC2=O)cc1 (configuration not stated),,inactive: 4.77%
O=C(NCc1cccc(Cl)c1)c1cccc(C(F)(F)F)c1,"inconclusive: 0.73 µM [inhibitor, partial curve, poor fit]",

# Of the compounds above, seven contain an NH in an aromatic ring:
Structure (SMILES),Potency,"activity change, negative = inhibition"
COc1ccc(CCNc2nc(=O)[nH]nc2C)cc1OC,"inconclusive: 5.17 µM [activator, partial curve, poor fit]",
COc1ccccc1-c1nnc(SC/C(O)=C(\C#N)c2nc3ccccc3[nH]2)n1C1CCCCC1,"inconclusive: 1 µM [inhibitor, full curve, poor fit]",
COc1ccc(-c2[nH]ncc2CN(C)CCCN2CCOCC2)cc1F,,inactive: -0.118% [at 46.1 µM]
CN1CCN(CCCNC(=O)c2ccc3c(=O)n(CCc4ccccc4)c(=O)[nH]c3c2)CC1,"inconclusive: 35.5 µM [inhibitor, single point]",
CC(=O)Nc1ccc2[nH]c(C)c(CC=C(Cl)Cl)c(=O)c2c1,,inactive: 3.48%
Cc1nnc(SCC(=O)N2c3ccccc3CC2C)[nH]c1=O (configuration not stated),,inactive: 0.515%
CCc1cc(C(=O)N(CC(C)C)c2c(N)n(Cc3ccccc3)c(=O)[nH]c2=O)sc1C,"inconclusive: 4.47 µM [inhibitor, partial curve]",
